Results are given in words; binding and its absence hold for the method and conditions named. Some results given as binding are weak or reduced against the parent protein; the word gives no strength.
Molecular target: ヒトCD3(初代ヒトT細胞上に発現) (human) (UniProt P07766)
Assay: flow cytometry on primary human T cells, 37 °C

Protein sequences, listed by entry. Tags and fused reporters are not part of them. Lines headed by an entry give the natural chain unless they say otherwise; changes in a name come on top.
UniProt P07766: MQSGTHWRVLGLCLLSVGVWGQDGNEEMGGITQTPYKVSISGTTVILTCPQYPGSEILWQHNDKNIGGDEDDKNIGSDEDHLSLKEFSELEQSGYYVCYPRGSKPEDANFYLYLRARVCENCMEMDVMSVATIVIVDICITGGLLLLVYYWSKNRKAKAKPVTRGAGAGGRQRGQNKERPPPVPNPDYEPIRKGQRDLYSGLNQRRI

binding: binds
B1: B7-H4xCD3二重特異性抗体1167 (bispecific antibody)
heavy 1: EVQLLESGGGLVQPGGSLRLSCAASGFTFSSYAMSWVRQAPGKGLEWVSAISGGGGSTYYADSVKGRFTISRDNSKNTLYLQMNSLRAEDTAVYYCARDIQWYGESTLFDYWGQGTLVTVSSASTKGPSVFPLAPCSRSTSESTAALGCLVKDYFPEPVTVSWNSGALTSGVHTFPAVLQSSGLYSLSSVVTVPSSNFGTQTYTCNVDHKPSNTKVDKTVERKCEVECPECPAPPVAGPSVFLFPPKPKDTLMISRTPEVTCVVVAVSHEDPEVQFNWYVDGVEVHNAKTKPREEQFNSTFRVVSVLTVVHQDWLNGKEYKCKVSNKGLPSSIEKTISKTKGQPREPQVYTLPPSREEMTKNQVSLTCEVKGFYPSDIAVEWESNGQPENNYKTTPPMLDSDGSFFLYSKLTVDKSRWQQGNVFSCSVMHEALHNHYTQKSLSLSPGK
light 1: DIQMTQSPSSLSASVGDRVTITCRASQSTRSHLAWYQQKPGKAPKLLIYKASSLEGGVPSRFSGSGSGTDFTLTISSLQPEDFATYYCQQYGSYSRTFGQGTKVEIKRTVAAPSVFIFPPSDEQLKSGTASVVCLLNNFYPREAKVQWKVDNALQSGNSQESVTEQDSKDSTYSLSSTLTLSKADYEKHKVYACEVTHQGLSSPVTKSFNRGEC
heavy 2: EVQLVESGGGLVQPGGSLRLSCAASGFTFSDYYMTWVRQAPGKGLEWVAFIRNQARGYTSDHNPSVKGRFTISRDNAKNSLYLQMNSLRAEDTAVYYCARDRPSYYVLDYWGQGTTVTVSSASTKGPSVFPLAPCSRSTSESTAALGCLVKDYFPEPVTVSWNSGALTSGVHTFPAVLQSSGLYSLSSVVTVPSSNFGTQTYTCNVDHKPSNTKVDKTVERKCRVRCPRCPAPPVAGPSVFLFPPKPKDTLMISRTPEVTCVVVAVSHEDPEVQFNWYVDGVEVHNAKTKPREEQFNSTFRVVSVLTVVHQDWLNGKEYKCKVSNKGLPSSIEKTISKTKGQPREPQVYTLPPSREEMTKNQVSLTCLVKGFYPSDIAVEWESNGQPENNYKTTPPMLDSDGSFFLYSRLTVDKSRWQQGNVFSCSVMHEALHNHYTQKSLSLSPGK
light 2: DIQMTQSPSSLSASVGDRVTITCTSSQSLFNVRSQKNYLAWYQQKPGKAPKLLIYWASTRESGVPSRFSGSGSGTDFTLTISSLQPEDFATYYCKQSYDLFTFGGGTKVEIKRTVAAPSVFIFPPSDEQLKSGTASVVCLLNNFYPREAKVQWKVDNALQSGNSQESVTEQDSKDSTYSLSSTLTLSKADYEKHKVYACEVTHQGLSSPVTKSFNRGEC

Reference: patent publication JP2023100255A
